Where two headings read alike, the source gives them in different places. Some of these results come from one statement about several compounds together.
Molecular target: B-Raf (V599E or Wild Type) (Homo sapiens, UniProt P15056)
Assay: B-Raf Flash Plate assay
Type: biochemical
Details: Peptide 118, 0.5 μM ATP, 60 minutes
[1] = read-out: IC50, inhibition of the enzyme in B-Raf Flash Plate assay
[2] = read-out: IC50 in B-Raf Flash Plate assay

Amino acid sequences for entries named in this document (tags omitted).
UniProt P15056, whole entry, stated change not applied: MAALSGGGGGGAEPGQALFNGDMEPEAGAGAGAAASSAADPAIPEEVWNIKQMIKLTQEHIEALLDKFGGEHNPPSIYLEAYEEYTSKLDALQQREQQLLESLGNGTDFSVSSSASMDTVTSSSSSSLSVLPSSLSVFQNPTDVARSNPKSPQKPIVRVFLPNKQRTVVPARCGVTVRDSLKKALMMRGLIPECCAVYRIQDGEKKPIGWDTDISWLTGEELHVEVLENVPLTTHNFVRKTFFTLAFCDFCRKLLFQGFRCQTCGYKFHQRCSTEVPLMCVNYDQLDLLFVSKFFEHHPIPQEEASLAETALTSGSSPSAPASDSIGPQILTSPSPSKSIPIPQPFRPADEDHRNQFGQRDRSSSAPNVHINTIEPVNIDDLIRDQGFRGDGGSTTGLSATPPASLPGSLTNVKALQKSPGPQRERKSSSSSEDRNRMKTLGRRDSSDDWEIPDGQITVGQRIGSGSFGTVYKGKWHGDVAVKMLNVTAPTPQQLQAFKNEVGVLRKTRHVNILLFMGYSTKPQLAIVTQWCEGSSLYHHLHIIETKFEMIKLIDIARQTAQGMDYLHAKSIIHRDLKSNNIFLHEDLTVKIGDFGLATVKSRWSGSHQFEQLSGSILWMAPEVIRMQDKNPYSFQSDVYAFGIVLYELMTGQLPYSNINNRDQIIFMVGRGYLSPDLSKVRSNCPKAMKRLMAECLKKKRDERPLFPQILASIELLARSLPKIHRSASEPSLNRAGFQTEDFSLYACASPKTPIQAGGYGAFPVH

SMILES	IC50 [1]	IC50 [2]
Cc1noc(C)c1-c1cc(Oc2ccc3c(c2)CC(C(=O)Nc2cc(CN)cc(C(F)(F)F)c2)CC3)ccn1 (stereo not drawn) [Compound I-184, N-[3-(aminomethyl)-5-(trifluoromethyl)phenyl]-7-{[2-(3,5-dimethylisoxazol-4-yl)pyridin-4-yl]oxy}-1,2,3,4-tetrahydronaphthalene-2-carboxamide]	≤ 1000 nM	
CC(=O)Nc1cc(Oc2ccc3ccc(C(=O)Nc4ccc(C#N)c(C(F)(F)F)c4)cc3c2)ccn1 [Compound I-157, 7-{[2-(acetylamino)pyridin-4-yl]oxy}-N-[4-cyano-3-(trifluoromethyl)-phenyl]-2-naphthamide]	≤ 1000 nM	< 50 nM
CC(=O)Nc1cc(Oc2ccc3c(c2)CC(NC(=O)c2cccc(C(C)(C)C)c2)CC3)ccn1 (stereo not drawn) [Compound I-436, N-(7-{[2-(acetylamino)pyridin-4-yl]oxy}-1,2,3,4-tetrahydronaphthalen-2-yl)-3-tert-butylbenzamide]	≤ 1000 nM	< 50 nM
CC(=O)Nc1cc(Oc2ccc3c(c2)CC(C(=O)Nc2cc(CCN)cc(C(F)(F)F)c2)CC3)ccn1 (stereo not drawn) [Compound I-343, 7-{[2-(acetylamino)pyridin-4-yl]oxy}-N-[3-(2-aminoethyl)-5-(trifluoromethyl)phenyl]-1,2,3,4-tetrahydronaphthalene-2-carboxamide]	≤ 1000 nM	< 50 nM
CC(C(=O)Nc1cc(Oc2ccc3ccc(C(=O)Nc4cccc(C(C)(C)C)c4)cc3c2)ccn1)N1CCN(C)CC1 (stereo not drawn) [Compound I-364, N-(3-tert-butylphenyl)-7-[(2-{[2-(4-methylpiperazin-1-yl)propanoyl]amino}pyridin-4-yl)oxy]-2-naphthamide]	≤ 1000 nM	< 50 nM
Nc1cc(Oc2ccc3ccc(C(=O)Nc4cc(OCCN5CCCC5)cc(C(F)(F)F)c4)cc3c2)ccn1 [Compound I-142, 7-[(2-aminopyridin-4-yl)oxy]-N-[3-(2-pyrrolidin-1-ylethoxy)-5-(trifluoromethyl)phenyl]-2-naphthamide]	≤ 1000 nM	< 50 nM
CC(C)NCc1cc(NC(=O)C2CCc3ccc(Oc4ccnc(NC(=O)C5CC5)c4)cc3C2)cc(C(F)(F)F)c1 (stereo not drawn) [Compound I-413, 7-({2-[(cyclopropylcarbonyl)amino]pyridin-4-yl}oxy)-N-[3-[(isopropylamino)methyl]-5-(trifluoromethyl)phenyl]-1,2,3,4-tetrahydronaphthalene-2-carboxamide]	≤ 1000 nM	< 50 nM
CNC(=O)c1cc(Oc2ccc3c(c2)CC(C(=O)Nc2ccc(CN4CCCC4)c(C(F)(F)F)c2)CC3)ccn1 (stereo not drawn) [Compound I-129, N-methyl-4-{[7-({[4-(pyrrolidin-1-ylmethyl)-3-(trifluoromethyl)phenyl]amino}carbonyl)-5,6,7,8-tetrahydronaphthalen-2-yl]oxy}pyridine-2-carboxamide]	≤ 1000 nM	
NCc1cc(NC(=O)C2CCc3ccc(Oc4ccnc(-c5cccnc5)c4)cc3C2)cc(C(F)(F)F)c1 (stereo not drawn) [Compound I-357, N-[3-(aminomethyl)-5-(trifluoromethyl)phenyl]-7-(2,3′-bipyridin-4-yloxy)-1,2,3,4-tetrahydronaphthalene-2-carboxamide]	≤ 1000 nM	< 50 nM
COC(=O)NCc1cc(Oc2ccc3c(c2)CC(C(=O)Nc2cc(CN)cc(C(F)(F)F)c2)CC3)ccn1 (stereo not drawn) [Compound I-192, methyl [(4-{[7-({[3-(aminomethyl)-5-(trifluoromethyl)phenyl]amino}carbonyl)-5,6,7,8-tetrahydronaphthalen-2-yl]oxy}pyridin-2-yl)methyl]carbamate]	≤ 1000 nM	< 50 nM
COC(=O)Nc1cc(Oc2ccc3c(c2)C=C(C(=O)Nc2cccc(C(C)(C)C)c2)CO3)ccn1 [Compound I-350, methyl {4-[(3-{[(3-tert-butylphenyl)amino]carbonyl}-2H-chromen-6-yl)oxy]pyridin-2-yl}carbamate]	≤ 1000 nM	< 50 nM
CN1CCN(C(=N)c2cc(Oc3ccc4c(c3)CC(C(=O)Nc3cccc(C(C)(C)C)c3)CC4)ccn2)CC1 (stereo not drawn) [Compound I-178, N-(3-tert-butylphenyl)-7-({2-[imino(4-methylpiperazin-1-yl)methyl]pyridin-4-yl}oxy)-1,2,3,4-tetrahydronaphthalene-2-carboxamide]	≤ 1000 nM	< 50 nM
O=C(Nc1cc(OCCN2CCCC2)cc(C(F)(F)F)c1)c1ccc2ccc(Oc3ccnc(-c4nc(CO)c[nH]4)c3)cc2c1 [Compound I-416, 7-({2-[4-(hydroxymethyl)-1H-imidazol-2-yl]pyridin-4-yl}oxy)-N-[3-(2-pyrrolidn-1-ylethoxy)-5-(trifluoromethyl)phenyl]-2-naphthamide]	≤ 1000 nM	< 50 nM

Second part, the molecule after the results:

IC50 [1]	IC50 [2]	SMILES
≤ 1000 nM		CNC(=O)c1cc(Oc2ccc3c(c2)CC(C(=O)Nc2cc(C(F)(F)F)ccc2OCCN2CCNCC2)CC3)ccn1 (stereo not drawn) [Compound I-300, N-methyl-4-{[7-({[2-(2-piperazin-1-ylethoxy)-5-(trifluoromethyl)phenyl]amino}carbonyl)-5,6,7,8-tetrahydronaphthalen-2-yl]oxy}pyridine-2-carboxamide]
≤ 1000 nM	< 50 nM	CN1CCN(CC(=O)Nc2cc(Oc3ccc4ccc(C(=O)Nc5cccc(C(C)(C)C)c5)cc4c3)ccn2)CC1 [Compound I-264, N-(3-tert-butylphenyl)-7-[(2-{[(4-methylpiperazin-1-yl)acetyl]amino}pyridin-4-yl)oxy]-2-naphthamide]
≤ 1000 nM	< 50 nM	CN1CCN(Cc2cc(NC(=O)C3CCc4ccc(Oc5ccnc(NC(=O)C6CC6)c5)cc4C3)cc(C(F)(F)F)c2)CC1 (stereo not drawn) [Compound I-293, 7-({2-[(cyclopropylcarbonyl)amino]pyridin-4-yl}oxy)-N-[3-[(4-methylpiperazin-1-yl)methyl]-5-(trifluoromethyl)phenyl]-1,2,3,4-tetrahydronaphthalene-2-carboxamide]
≤ 1000 nM	< 50 nM	CC(C(=O)Nc1cc(Oc2ccc3c(c2)CC(C(=O)Nc2cccc(C(C)(C)C)c2)CC3)ccn1)N1CCCC1 (stereo not drawn) [Compound I-275, N-(3-tert-butylphenyl)-7-({2-[(2-pyrrolidin-1-ylpropanoyl)-amino]pyridin-4-yl}oxy)-1,2,3,4-tetrahydronaphthalene-2-carboxamide]
≤ 1000 nM	< 50 nM	COC(=O)Nc1cc(Oc2ccc3c(c2)CC(C(=O)Nc2cc(CN)cc(C(F)(F)F)c2)CC3)ccn1 (stereo not drawn) [Compound I-193, methyl (4-{[7-({[3-(aminomethyl)-5-(trifluoromethyl)phenyl]amino}carbonyl)-5,6,7,8-tetrahydronaphthalen-2-yl]oxy}pyridin-2-yl)carbamate]
≤ 1000 nM	< 50 nM	CNC(=O)c1cc(Oc2ccc3c(c2)CC(C(=O)Nc2cc(C(F)(F)F)ccc2C#N)CC3)ccn1 (stereo not drawn) [Compound I-382, 4-{[7-({[2-cyano-5-(trifluoromethyl)phenyl]amino}carbonyl)-5,6,7,8-tetrahydronaphthalen-2-yl]oxy}-N-methylpyridine-2-carboxamide]
≤ 1000 nM	< 50 nM	CC(C)NC(=N)c1cc(Oc2ccc3ccc(C(=O)Nc4cccc(C(C)(C)C)c4)cc3c2)ccn1 [Compound I-354, N-(3-tert-butylphenyl)-7-({2-[imino(isopropylamino)methyl]pyridin-4-yl}oxy)-2-naphthamide]
≤ 1000 nM		CNC(=O)c1cc(Oc2ccc3c(c2)CC(C(=O)Nc2ccc(CCN)cc2)CC3)ccn1 (stereo not drawn) [Compound I-29, 4-{[7-({[4-(2-aminoethyl)phenyl]amino}carbonyl)-5,6,7,8-tetrahydronaphthalen-2-yl]oxy}-N-methylpyridine-2-carboxamide]
≤ 1000 nM		CC(C)(C)c1cccc(NC(=O)C2CCc3ccc(Oc4ccnc(-c5ncco5)c4)cc3C2)c1 (stereo not drawn) [Compound I-325, N-(3-tert-butylphenyl)-7-{[2-(1,3-oxazol-2-yl)pyridin-4-yl]oxy}-1,2,3,4-tetrahydronaphthalene-2-carboxamide]
≤ 1000 nM	< 50 nM	CC(C)(C)c1cccc(NC(=O)c2ccc3ccc(Oc4ccnc(C5=NCCCN5)c4)cc3c2)c1 [Compound I-245, N-(3-tert-butylphenyl)-7-{[2-(1,4,5,6-tetrahydropyrimidin-2-yl)-pyridin-4-yl]oxy}-2-naphthamide]
≤ 1000 nM	< 50 nM	O=C(Nc1ccc(Cl)c(C(F)(F)F)c1)N1CCc2ccc(Oc3ccnc(C4=NCCN4)c3)cc2C1 [Compound I-172, N-[4-chloro-3-(trifluoromethyl)phenyl]-7-{[2-(4,5-dihydro-1H-imidazol-2-yl)pyridin-4-yl]oxy}-3,4-dihydroisoquinoline-2(1H)-carboxamide]
≤ 1000 nM	< 50 nM	CC(=O)Nc1cc(Oc2ccc3c(c2)CC(C(=O)Nc2ccc(CN4CCCC4)c(C(F)(F)F)c2)CC3)ccn1 (stereo not drawn) [Compound I-111, 7-{[2-(acetylamino)pyridin-4-yl]oxy}-N-[4-(pyrrolidin-1-ylmethyl)-3-(trifluoromethyl)phenyl]-1,2,3,4-tetrahydronaphthalene-2-carboxamide]
≤ 1000 nM	< 50 nM	O=C(Nc1cc(OCCN2CCCC2)cc(C(F)(F)F)c1)c1cnc2ccc(Oc3ccnc(C4=NCCN4)c3)cc2c1 [Compound I-222, 6-{[2-(4,5-dihydro-1H-imidazol-2-yl)pyridin-4-yl]oxy}-N-[3-(2-pyrrolidin-1-ylethoxy)-5-(trifluoromethyl)phenyl]quinoline-3-carboxamide]
≤ 1000 nM	< 50 nM	CC(=O)Nc1cc(Oc2ccc3c(c2)C[C@@H](C(=O)Nc2cc(CN4CCCC4)cc(C(F)(F)F)c2)CC3)ccn1 [Compound I-311, (2S)-7-{[2-(acetylamino)pyridin-4-yl]oxy}-N-[3-(pyrrolidin-1-ylmethyl)-5-(trifluoromethyl)phenyl]-1,2,3,4-tetrahydronaphthalene-2-carboxamide]
≤ 1000 nM	< 50 nM	CN1CCN(CC(=O)Nc2cc(Oc3ccc4c(c3)CC(C(=O)Nc3cccc(C(C)(C)C)c3)CC4)ccn2)CC1 (stereo not drawn) [Compound I-353, N-(3-tert-butylphenyl)-7-[(2-{[(4-methylpiperazin-1-yl)acetyl]amino}pyridin-4-yl)oxy]-1,2,3,4-tetrahydronaphthalene-2-carboxamide]

Reference: patent US8110687B2, “Bicyclic compounds with kinase inhibitory activity” (Millennium Pharmaceuticals, Inc., priority 2005, dated 2012)
